In the supplement of paper PMC10338343:
± gives the standard deviation. The entries are a selection whose mix differs from that of the whole data set. Many entries were measured with a wide error. The list shows a part of the results.

Key:
[1] = system: MILI (PIWIL2) piRISC loaded with L1MC piRNA (26 nt); test: pre-steady-state target cleavage rate (min^-1); higher = faster piRNA-guided slicing of the target; conditions: guide: L1MC piRNA 5'p-UAACUAAAUACUAUGCAAGCUGUAGG
How it was run: (§1)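 The pre-steady-state cleavage rate was obtained by Cleave-'n-Seq with a burst-and-steady-state fit. A transcribed, DNA-blocked target RNA library (0.1 nM) was mixed with 1 nM active affinity-purified piRISC carrying one synthetic guide, with or without 500 nM GTSF1 partner protein, in HEPES–potassium acetate buffer at 33 °C for 0–8 or 0–960 min. Uncleaved targets were sequenced and normalised to depth and to weakly complementary targets, with three trials pooled and k3 capped at 0.0001 min^-1.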

[2] = system: EfPiwi piRISC loaded with L1MC piRNA (26 nt); test: pre-steady-state target cleavage rate (min^-1); guide: L1MC piRNA 5'p-UAACUAAAUACUAUGCAAGCUGUAGG; MIWI and MILI are mouse PIWI proteins and EfPiwi is from a freshwater sponge; tags in brackets are library labels; higher = faster piRNA-guided slicing of the target
How it was run: as §1

[3] = auxiliary factor: none (no GTSF1)
[4] = auxiliary factor: 500 nM Ephydatia muelleri Gtsf1
[5] = auxiliary factor: none (no Gtsf1)

Sequence | pre-steady-state target cleavage rate [1, 3] | pre-steady-state target cleavage rate [2, 4] | pre-steady-state target cleavage rate [2, 5] | pre-steady-state target cleavage rate ([1]; auxiliary factor: 500 nM mouse GTSF1)
UCCUGGAUGAGCUUGCAUAGAAUUUACUUA | 0.000773 ± 0.0065 | 0.000759 ± 0.0044 | – | –
UCCUGGAACAGCUUGCAUAGUAUUUUGUAA | 0.00166 ± 0.0048 | 0.00148 ± 0.0043 | – | –
UCCUGCUACAGCUUGCAUAGUAUGUAGUUA | 0.000629 ± 0.011 | 0.00311 ± 0.0014 | – | –
UCCUGGUACAGCUUGCAUACUAUUUAGUAA | 0.00234 ± 0.0042 | – | 0.000499 ± 0.021 | –
UCCUGGAUGUCCUUGCAUAGUAUUUAGAUUA | 0.00242 ± 0.0032 | 0.00316 ± 0.003 | – | –
UCCUGGAUCAGCUUGCAUAGUAUUUACAUA | 0.00201 ± 0.0031 | 0.00271 ± 0.0021 | – | –
UCCUGCUACACCUUGCAUACUAUUUAGUUA | 0.00195 ± 0.004 | 0.00403 ± 0.0024 | – | –
UCCUCCUACAGCUUGCAUAGUAUAAAGUAA | 0.00135 ± 0.005 | – | 0.000384 ± 0.017 | –
UCCUGGAUGUCGAUGCAUACUAUUAAGUUA | 0.000121 ± 0.039 | < 0.0001 | – | –
UCCUGGAUGAUCUUGCAUAGUAUUUAGUUA | 0.00813 ± 0.003 | 0.0779 ± 0.023 | – | 0.145 ± 0.016
